Test results published in PMC4643306.
No constants are given. Whether binding was seen depends on the method and setting. In cells and extracts the contact can be indirect. A result given as binding can be weak or reduced; the word gives no strength.

By UniProt entry, the sequences of proteins in these tests, tags left out. Where a name states a change or a piece, a line headed by the entry shows the natural chain unless it says otherwise.
UniProt Q13107: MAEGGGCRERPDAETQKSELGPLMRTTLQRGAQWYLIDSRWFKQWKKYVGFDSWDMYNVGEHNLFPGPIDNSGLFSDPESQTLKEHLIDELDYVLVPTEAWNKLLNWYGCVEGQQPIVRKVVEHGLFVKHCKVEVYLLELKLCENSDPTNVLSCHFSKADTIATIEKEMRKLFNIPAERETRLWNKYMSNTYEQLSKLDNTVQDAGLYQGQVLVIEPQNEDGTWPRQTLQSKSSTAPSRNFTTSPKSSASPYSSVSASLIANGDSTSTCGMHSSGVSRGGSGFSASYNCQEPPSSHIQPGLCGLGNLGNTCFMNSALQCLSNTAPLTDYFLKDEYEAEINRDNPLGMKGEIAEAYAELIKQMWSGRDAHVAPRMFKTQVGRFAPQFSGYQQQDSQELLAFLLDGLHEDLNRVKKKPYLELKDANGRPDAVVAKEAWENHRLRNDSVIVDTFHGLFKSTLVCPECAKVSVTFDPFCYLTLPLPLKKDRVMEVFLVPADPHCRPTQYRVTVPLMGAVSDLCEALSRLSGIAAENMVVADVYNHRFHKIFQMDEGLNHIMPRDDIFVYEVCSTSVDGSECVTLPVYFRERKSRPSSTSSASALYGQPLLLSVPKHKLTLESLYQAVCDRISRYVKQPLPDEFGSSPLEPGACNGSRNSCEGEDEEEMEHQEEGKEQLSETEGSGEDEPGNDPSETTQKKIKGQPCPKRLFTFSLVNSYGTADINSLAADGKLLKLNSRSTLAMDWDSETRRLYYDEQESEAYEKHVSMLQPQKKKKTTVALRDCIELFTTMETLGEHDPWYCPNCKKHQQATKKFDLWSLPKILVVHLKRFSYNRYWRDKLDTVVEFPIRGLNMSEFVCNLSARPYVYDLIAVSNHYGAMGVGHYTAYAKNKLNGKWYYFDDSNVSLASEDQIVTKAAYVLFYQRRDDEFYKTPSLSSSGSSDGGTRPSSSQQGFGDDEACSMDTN
UniProt Q92878: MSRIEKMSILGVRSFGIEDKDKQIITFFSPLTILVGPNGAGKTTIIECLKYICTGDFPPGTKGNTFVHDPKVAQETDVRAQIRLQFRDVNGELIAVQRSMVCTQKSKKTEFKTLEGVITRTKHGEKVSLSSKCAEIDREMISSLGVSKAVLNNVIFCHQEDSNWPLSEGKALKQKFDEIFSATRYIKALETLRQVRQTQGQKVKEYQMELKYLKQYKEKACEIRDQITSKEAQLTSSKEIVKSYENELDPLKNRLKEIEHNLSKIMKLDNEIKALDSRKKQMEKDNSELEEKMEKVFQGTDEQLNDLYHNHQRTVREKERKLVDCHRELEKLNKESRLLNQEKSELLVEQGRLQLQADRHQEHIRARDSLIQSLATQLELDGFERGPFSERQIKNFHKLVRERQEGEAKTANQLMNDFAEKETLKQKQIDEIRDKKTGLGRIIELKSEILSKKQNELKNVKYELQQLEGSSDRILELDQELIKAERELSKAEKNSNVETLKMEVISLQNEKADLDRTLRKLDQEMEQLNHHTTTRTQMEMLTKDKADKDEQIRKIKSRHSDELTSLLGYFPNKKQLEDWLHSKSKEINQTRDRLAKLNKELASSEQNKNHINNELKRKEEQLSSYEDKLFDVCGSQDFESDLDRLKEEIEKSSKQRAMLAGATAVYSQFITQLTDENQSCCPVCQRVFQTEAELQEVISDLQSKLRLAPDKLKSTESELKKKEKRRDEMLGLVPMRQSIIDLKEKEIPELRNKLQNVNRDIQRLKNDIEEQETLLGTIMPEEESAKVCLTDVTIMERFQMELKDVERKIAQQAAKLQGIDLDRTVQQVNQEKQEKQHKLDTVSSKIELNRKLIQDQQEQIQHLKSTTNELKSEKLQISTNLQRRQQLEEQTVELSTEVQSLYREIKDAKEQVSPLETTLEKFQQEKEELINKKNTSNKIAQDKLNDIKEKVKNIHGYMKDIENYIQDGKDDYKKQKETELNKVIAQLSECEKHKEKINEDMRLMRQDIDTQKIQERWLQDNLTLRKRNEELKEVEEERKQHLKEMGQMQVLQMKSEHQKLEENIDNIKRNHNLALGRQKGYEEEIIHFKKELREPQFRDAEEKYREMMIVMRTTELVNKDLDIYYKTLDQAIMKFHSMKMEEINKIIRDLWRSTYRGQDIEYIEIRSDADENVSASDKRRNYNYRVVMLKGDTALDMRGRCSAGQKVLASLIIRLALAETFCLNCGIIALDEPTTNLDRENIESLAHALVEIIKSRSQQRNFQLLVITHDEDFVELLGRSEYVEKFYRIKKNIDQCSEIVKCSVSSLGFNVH

Target: USP4 lacking the ubiquitin-like domain 2 region (ΔUBL2) (human) (UniProt Q13107)
Assay: co-IP; anti-GFP immunoprecipitation of GFP-FLAG-fused USP4 (full length from U2OS lysates; deletion mutants, cell line not stated), western blot for CtIP, RAD50 and MRE11; full length also after DNA damage induction

Which binding does the source give for RAD50 (from UniProt Q92878 1-1312) here?
The binding was “binds”.
